The text below walks through data of publication PMC9675456.

Chains of the proteins cited; added tags and fusions are not shown. Lines headed by an entry give the natural chain unless they say otherwise; changes in a name come on top. Residues count along the entry.
UniProt Q9BRT9: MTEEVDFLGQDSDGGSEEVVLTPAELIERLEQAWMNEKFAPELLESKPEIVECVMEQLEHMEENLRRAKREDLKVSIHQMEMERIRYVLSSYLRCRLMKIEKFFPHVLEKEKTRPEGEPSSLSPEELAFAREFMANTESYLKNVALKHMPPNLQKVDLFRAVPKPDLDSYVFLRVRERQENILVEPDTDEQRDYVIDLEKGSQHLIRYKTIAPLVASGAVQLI
Myc-GINS4 Q191X: residues 1-190 of Q9BRT9

No constants are given. Whether binding was seen depends on the method and setting. In cells and extracts the contact can be indirect. Some results given as binding are weak or reduced against the parent protein; the word gives no strength.

B1: GINS2 (protein, UniProt Q9Y248 1-185)
chain: MDAAEVEFLAEKELVTIIPNFSLDKIYLIGGDLGPFNPGLPVEVPLWLAINLKQRQKCRLLPPEWMDVEKLEKMRDHERKEETFTPMPSPYYMELTKLLLNHASDNIPKADEIRTLVKDMWDTRIAKLRVSADSFVRQQEAHAKLDNLTLMEINTSGTFLTQALNHMYKLRTNLQPLESTQSQDF
B2: GINS1 (protein, UniProt Q14691 1-196)
chain: MFCEKAMELIRELHRAPEGQLPAFNEDGLRQVLEEMKALYEQNQSDVNEAKSGGRSDLIPTIKFRHCSLLRNRRCTVAYLYDRLLRIRALRWEYGSVLPNALRFHMAAEEMEWFNNYKRSLATYMRSLGGDEGLDITQDMKPPKSLYIEVRCLKDYGEFEVDDGTSVLLKKNSQHFLPRWKCEQLIRQGVLEHILS
B3: GINS3 (protein, UniProt Q9BRX5 1-216)
chain: MSEAYFRVESGALGPEENFLSLDDILMSHEKLPVRTETAMPRLGAFFLERSAGAETDNAVPQGSKLELPLWLAKGLFDNKRRILSVELPKIYQEGWRTVFSADPNVVDLHKMGPHFYGFGSQLLHFDSPENADISQSLLQTFIGRFRRIMDSSQNAYNEDTSALVARLDEMERGLFQTGQKGLNDFQCWEKGQASQITASNLVQNYKKRKFTDMED

For one experiment, the target named is Myc-GINS4 Q191X (human) (UniProt Q9BRT9). Put plainly: co-IP; Myc-GINS4 (WT, V171L or Q191X) precipitated with myc-Trap magnetic agarose beads from HEK293T whole cell extracts 48 h after transfection; Co-IP buffer (10 mM Tris-HCl pH 7.5, 150 mM NaCl, EDTA, 0.5% NP40) with 75 U/mL DNase I and 2.5 mM MgCl2, 30 min at 4°C; blots probed for GINS1, GINS2, GINS3 and MYC.
In the case of B1, the binding entry is given as “binds”.
The same measure, in the same setting: in the case of B2 it was “binds weakly”.
On to B3, for which the binding entry is “binds weakly”.

For another experiment, the target named is Myc-GINS4-V171L (human) (UniProt Q9BRT9). The experiment is described as above.
For B1, the binding result is “binds”.
B2: the binding entry is reported as “binds”.
For B3, the binding result is on record as “binds”.

Another experiment deals with Myc-GINS4 WT (human) (UniProt Q9BRT9). The experiment is described as above.
In the case of B1, the binding result is given as “binds”.
The same measure, in the same setting: as for B2, the entry is “binds”.
Take B3: the binding result is on record as “binds”.
